HELM strings list residues between dots; [ac] is acetyl, [am] amide, other brackets name non-standard units.
Test: general procedure: Fmoc solid-phase peptide synthesis; 2-chlorotrityl resin (polystyrene crosslinked with 1-5% divinylbenzene)
Details: whole synthesis, HPLC-MS

Substance	final HPLC purity
PEPTIDE1{[ac].V.[Orn].Y.[Dab].E.[D-Dab].[Hse].W.S.[tBuGly].[dT]}|PEPTIDE2{[Dab].T.[Dap].[Dab].[Dab].[dL].L.[Dab].[Dab].T}$PEPTIDE1,PEPTIDE1,3:R3-12:R2|PEPTIDE1,PEPTIDE2,6:R3-1:R1|PEPTIDE2,PEPTIDE2,4:R3-10:R2$$$V2.0	95%
PEPTIDE1{[ac].V.[Orn].Y.S.E.[D-Dab].[Hse].W.S.[tBuGly].[D-Hse]}|PEPTIDE2{[Dab].T.[Dap].[Dab].[Dab].[dL].L.[Dab].[Dab].T}$PEPTIDE1,PEPTIDE1,3:R3-12:R2|PEPTIDE1,PEPTIDE2,6:R3-1:R1|PEPTIDE2,PEPTIDE2,4:R3-10:R2$$$V2.0	75%
PEPTIDE1{[ac].S.C.Y.[Dab].E.[D-Dab].[Hse].W.S.V.C.V.[am]}|PEPTIDE2{[Dab].T.[Dab].[Dab].[Dab].[dL].L.[Dab].[Dab].T}$PEPTIDE1,PEPTIDE1,3:R3-12:R3|PEPTIDE1,PEPTIDE2,6:R3-1:R1|PEPTIDE2,PEPTIDE2,4:R3-10:R2$$$V2.0	88%
PEPTIDE1{V.D.Y.[Dab].E.[D-Dab].T.W.S.[tBuGly].[Dab].S}|PEPTIDE2{[Dab].T.[Dab].[Dab].[Dab].[dL].L.[Dab].[Dab].T}$PEPTIDE1,PEPTIDE1,2:R3-11:R3|PEPTIDE1,PEPTIDE2,5:R3-1:R1|PEPTIDE2,PEPTIDE2,4:R3-10:R2$$$V2.0	93%
PEPTIDE1{[ac].V.[Dab].Y.[Dap].E.[D-Dab].[Hse].W.S.[tBuGly].[dT]}|PEPTIDE2{[Dab].T.[Dap].[Dab].[Dab].[dL].L.[Dab].[Dab].T}$PEPTIDE1,PEPTIDE1,3:R3-12:R2|PEPTIDE1,PEPTIDE2,6:R3-1:R1|PEPTIDE2,PEPTIDE2,4:R3-10:R2$$$V2.0	77%
PEPTIDE1{[Hiv].C.Y.[Dap].E.[D-Dab].[Dab].W.S.[tBuGly].C.[Throl]}|PEPTIDE2{[Dab].T.[Dap].[Dab].[Dab].[dL].L.[Dab].[Dab].T}$PEPTIDE1,PEPTIDE1,2:R3-11:R3|PEPTIDE1,PEPTIDE2,5:R3-1:R1|PEPTIDE2,PEPTIDE2,4:R3-10:R2$$$V2.0	95%
PEPTIDE1{[ac].V.[Orn].Y.T.E.[D-Dab].[Hse].W.S.[tBuGly].[dT]}|PEPTIDE2{[Dab].T.[Dap].[Dab].[Dab].[dL].L.[Dab].[Dab].T}$PEPTIDE1,PEPTIDE1,3:R3-12:R2|PEPTIDE1,PEPTIDE2,6:R3-1:R1|PEPTIDE2,PEPTIDE2,4:R3-10:R2$$$V2.0	74%
PEPTIDE1{[HOVal].[Pen].Y.[Dab].E.[D-Dab].[Hse].W.S.[tBuGly].C.[Throl]}|PEPTIDE2{[Dab].T.[Dab].[Dab].[Dab].[dL].L.[Dab].[Dab].T}$PEPTIDE1,PEPTIDE1,2:R3-11:R3|PEPTIDE1,PEPTIDE2,5:R3-1:R1|PEPTIDE2,PEPTIDE2,4:R3-10:R2$$$V2.0	78%
PEPTIDE1{V.C.Y.[Dab].E.[D-Dab].T.W.S.[tBuGly].C.S.[am]}|PEPTIDE2{[Dab].T.[Dab].[Dab].[Dab].[dL].L.[Dab].[Dab].T}$PEPTIDE1,PEPTIDE1,2:R3-11:R3|PEPTIDE1,PEPTIDE2,5:R3-1:R1|PEPTIDE2,PEPTIDE2,4:R3-10:R2$$$V2.0	95%
PEPTIDE1{[HOVal].C.Y.[Dap].E.[D-Dab].T.W.S.[tBuGly].C.[Throl]}|PEPTIDE2{[Dab].T.[Dab].[Dab].[Dab].[dL].L.[Dab].[Dab].T}$PEPTIDE1,PEPTIDE1,2:R3-11:R3|PEPTIDE1,PEPTIDE2,5:R3-1:R1|PEPTIDE2,PEPTIDE2,4:R3-10:R2$$$V2.0	95%
PEPTIDE1{[ac].V.C.S.[Dab].E.[D-Dab].[Hse].W.S.[tBuGly].C.Y.[Glyol]}|PEPTIDE2{[Dab].T.[Dab].[Dab].[Dab].[dL].L.[Dab].[Dab].T}$PEPTIDE1,PEPTIDE1,3:R3-12:R3|PEPTIDE1,PEPTIDE2,6:R3-1:R1|PEPTIDE2,PEPTIDE2,4:R3-10:R2$$$V2.0	92%
PEPTIDE1{[ac].I.[Orn].Y.[Dap].E.[D-Dab].[Hse].W.S.[tBuGly].[dT]}|PEPTIDE2{[Dab].T.[Dap].[Dab].[Dab].[dL].L.[Dab].[Dab].T}$PEPTIDE1,PEPTIDE1,3:R3-12:R2|PEPTIDE1,PEPTIDE2,6:R3-1:R1|PEPTIDE2,PEPTIDE2,4:R3-10:R2$$$V2.0	73%
PEPTIDE1{[3MeButA].C.Y.[Dap].E.[D-Dab].T.W.S.[tBuGly].C.[Throl]}|PEPTIDE2{[Dab].T.[Dab].[Dab].[Dab].[dL].L.[Dab].[Dab].T}$PEPTIDE1,PEPTIDE1,2:R3-11:R3|PEPTIDE1,PEPTIDE2,5:R3-1:R1|PEPTIDE2,PEPTIDE2,4:R3-10:R2$$$V2.0	90%
PEPTIDE1{[Hiv].C.Y.[Dap].E.[D-Dab].[Hse].W.S.[tBuGly].C.[Throl]}|PEPTIDE2{[Dab].T.[Dap].[Dab].[Dab].[dL].L.[Dab].[Dab].T}$PEPTIDE1,PEPTIDE1,2:R3-11:R3|PEPTIDE1,PEPTIDE2,5:R3-1:R1|PEPTIDE2,PEPTIDE2,4:R3-10:R2$$$V2.0	95%
PEPTIDE1{[ac].V.[Orn].Y.S.E.[D-Dab].[Hse].W.S.[tBuGly].[D-Dab]}|PEPTIDE2{[Dab].T.[Dap].[Dab].[Dab].[dL].L.[Dab].[Dab].T}$PEPTIDE1,PEPTIDE1,3:R3-12:R2|PEPTIDE1,PEPTIDE2,6:R3-1:R1|PEPTIDE2,PEPTIDE2,4:R3-10:R2$$$V2.0	77%
PEPTIDE1{[ac].V.[Orn].Y.S.E.[D-Dab].[Hse].W.S.[tBuGly].[dV]}|PEPTIDE2{[Dab].T.[Dap].[Dab].[Dab].[dL].L.[Dab].[Dab].T}$PEPTIDE1,PEPTIDE1,3:R3-12:R2|PEPTIDE1,PEPTIDE2,6:R3-1:R1|PEPTIDE2,PEPTIDE2,4:R3-10:R2$$$V2.0	83%
PEPTIDE1{[ac].V.[Orn].Y.S.E.[D-Dab].[Hse].W.S.[tBuGly].[dK]}|PEPTIDE2{[Dab].T.[Dap].[Dab].[Dab].[dL].L.[Dab].[Dab].T}$PEPTIDE1,PEPTIDE1,3:R3-12:R2|PEPTIDE1,PEPTIDE2,6:R3-1:R1|PEPTIDE2,PEPTIDE2,4:R3-10:R2$$$V2.0	80%
PEPTIDE1{[ac].F.[Orn].Y.[Dap].E.[D-Dab].[Hse].W.S.[tBuGly].[dT]}|PEPTIDE2{[Dab].T.[Dap].[Dab].[Dab].[dL].L.[Dab].[Dab].T}$PEPTIDE1,PEPTIDE1,3:R3-12:R2|PEPTIDE1,PEPTIDE2,6:R3-1:R1|PEPTIDE2,PEPTIDE2,4:R3-10:R2$$$V2.0	80%
PEPTIDE1{V.[Pen].Y.[Dab].E.[D-Dab].T.W.S.[tBuGly].C.S}|PEPTIDE2{[Dab].T.[Dab].[Dab].[Dab].[dL].L.[Dab].[Dab].T}$PEPTIDE1,PEPTIDE1,2:R3-11:R3|PEPTIDE1,PEPTIDE2,5:R3-1:R1|PEPTIDE2,PEPTIDE2,4:R3-10:R2$$$V2.0	91%
PEPTIDE1{[HOVal].C.V.[Dab].E.[D-Dab].[Hse].W.S.Y.C.[Serol]}|PEPTIDE2{[Dab].T.[Dab].[Dab].[Dab].[dL].L.[Dab].[Dab].T}$PEPTIDE1,PEPTIDE1,2:R3-11:R3|PEPTIDE1,PEPTIDE2,5:R3-1:R1|PEPTIDE2,PEPTIDE2,4:R3-10:R2$$$V2.0	82%

Reference: patent US11629171B2 (POLYPHOR AG, priority 2017, dated 2023)
